# PubChem BioAssay AID485298 (National Center for Advancing Translational Sciences (NCATS), 2010)
# Hit rate of the full screen: of about 320,000 compounds, about 740 (0.23%) were called active. Calls follow the shape of the dose curve; as a rule, active = well fitted activation curve with a large enough effect; inconclusive = small, poorly fitted or top-dose-only effect; inactive = no such curve, though single readings can be large or run the other way. Inconclusive results, whose numbers are uncertain, are shown. Potencies of inconclusive entries are doubtful fits and often do not repeat.
# Test: qHTS Assay for Small Molecule Inhibitors of Mitochondrial Division or Activators of Mitochondrial Fusion; also: nearly all actives have a fitted effect of over 45% in size
# Conditions: S. cerevisiae fusion-defective mutant growth rescue, CellTiterGlo 48 h; series mostly up to 46.1 µM
# From the text: NIH Chemical Genomics Center [NCGC] NIH Molecular Libraries Probe Production centers Network [MLPCN] MLPCN Grant: MH081279-01 Assay Submitter (PI): Jodi M. Nunnari NCGC Assay Overview: The budding yeast S. cerevisiae is a powerful system to study mitochondrial fusion. Unlike other organisms, yeast cells without functional mitochondrial DNA (mtDNA) can be propagated and studied as long as they maintain a mitochondrial compartment and are provided with a fermentable carbon source. When mitochondrial fusion is blocked in yeast, mitochondrial tubules rapidly fragment and division continues unopposed. Under conditions where fusion is compromised in mammalian cells, nearly identical changes in mitochondrial structure have been observed. Thus, these findings indicate that steady state mitochondrial structure in cells is a characteristic and specific indicator of fusion activity. […] We have developed and optimized a luminescence cell viability assay in 1536 well format for the identification of inhibitors in the yeast mitochondrial fusion-defective assay.
# The yeast glycerol stocks where kindly supplied by the laboratory of Dr. Jodi Nunnari, University of California, Davis. […] The CellTiterGlo luminescence reagent, containing luciferase and luciferin, were purchased from Promega, and the reagents were stored according to manufacturer's instructions. […] 7.#Read using bio-luminescence protocol on Viewlux.
# Potency is read from the fitted curve at half-maximal effect.
row,Structure (SMILES),Potency
1,Cc1c(CC(=O)O)c(=O)oc2c(C)c3occ(-c4ccc(Br)cc4)c3cc12,"inconclusive: 7.94 µM [activator, partial curve]"
2,CC(C)(C)CC(C)(C)c1ccc(OCC(=O)N/N=C/c2ccc(S(=O)(=O)O)o2)cc1,"inconclusive: 15.8 µM [activator, single point]"
